Primary screen of a compound library

By UniProt entry, the sequences of proteins in these tests, tags left out.
UniProt P9WFT3, whole entry: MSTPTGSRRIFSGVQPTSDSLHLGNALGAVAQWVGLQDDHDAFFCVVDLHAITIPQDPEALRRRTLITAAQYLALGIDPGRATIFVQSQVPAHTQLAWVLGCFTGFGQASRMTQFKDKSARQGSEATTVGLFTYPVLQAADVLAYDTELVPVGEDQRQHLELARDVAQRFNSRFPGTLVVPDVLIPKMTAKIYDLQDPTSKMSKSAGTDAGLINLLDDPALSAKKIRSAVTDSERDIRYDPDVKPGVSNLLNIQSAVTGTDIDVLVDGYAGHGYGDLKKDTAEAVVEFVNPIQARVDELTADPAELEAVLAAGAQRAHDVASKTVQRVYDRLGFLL
UniProt I6X8D2, whole entry: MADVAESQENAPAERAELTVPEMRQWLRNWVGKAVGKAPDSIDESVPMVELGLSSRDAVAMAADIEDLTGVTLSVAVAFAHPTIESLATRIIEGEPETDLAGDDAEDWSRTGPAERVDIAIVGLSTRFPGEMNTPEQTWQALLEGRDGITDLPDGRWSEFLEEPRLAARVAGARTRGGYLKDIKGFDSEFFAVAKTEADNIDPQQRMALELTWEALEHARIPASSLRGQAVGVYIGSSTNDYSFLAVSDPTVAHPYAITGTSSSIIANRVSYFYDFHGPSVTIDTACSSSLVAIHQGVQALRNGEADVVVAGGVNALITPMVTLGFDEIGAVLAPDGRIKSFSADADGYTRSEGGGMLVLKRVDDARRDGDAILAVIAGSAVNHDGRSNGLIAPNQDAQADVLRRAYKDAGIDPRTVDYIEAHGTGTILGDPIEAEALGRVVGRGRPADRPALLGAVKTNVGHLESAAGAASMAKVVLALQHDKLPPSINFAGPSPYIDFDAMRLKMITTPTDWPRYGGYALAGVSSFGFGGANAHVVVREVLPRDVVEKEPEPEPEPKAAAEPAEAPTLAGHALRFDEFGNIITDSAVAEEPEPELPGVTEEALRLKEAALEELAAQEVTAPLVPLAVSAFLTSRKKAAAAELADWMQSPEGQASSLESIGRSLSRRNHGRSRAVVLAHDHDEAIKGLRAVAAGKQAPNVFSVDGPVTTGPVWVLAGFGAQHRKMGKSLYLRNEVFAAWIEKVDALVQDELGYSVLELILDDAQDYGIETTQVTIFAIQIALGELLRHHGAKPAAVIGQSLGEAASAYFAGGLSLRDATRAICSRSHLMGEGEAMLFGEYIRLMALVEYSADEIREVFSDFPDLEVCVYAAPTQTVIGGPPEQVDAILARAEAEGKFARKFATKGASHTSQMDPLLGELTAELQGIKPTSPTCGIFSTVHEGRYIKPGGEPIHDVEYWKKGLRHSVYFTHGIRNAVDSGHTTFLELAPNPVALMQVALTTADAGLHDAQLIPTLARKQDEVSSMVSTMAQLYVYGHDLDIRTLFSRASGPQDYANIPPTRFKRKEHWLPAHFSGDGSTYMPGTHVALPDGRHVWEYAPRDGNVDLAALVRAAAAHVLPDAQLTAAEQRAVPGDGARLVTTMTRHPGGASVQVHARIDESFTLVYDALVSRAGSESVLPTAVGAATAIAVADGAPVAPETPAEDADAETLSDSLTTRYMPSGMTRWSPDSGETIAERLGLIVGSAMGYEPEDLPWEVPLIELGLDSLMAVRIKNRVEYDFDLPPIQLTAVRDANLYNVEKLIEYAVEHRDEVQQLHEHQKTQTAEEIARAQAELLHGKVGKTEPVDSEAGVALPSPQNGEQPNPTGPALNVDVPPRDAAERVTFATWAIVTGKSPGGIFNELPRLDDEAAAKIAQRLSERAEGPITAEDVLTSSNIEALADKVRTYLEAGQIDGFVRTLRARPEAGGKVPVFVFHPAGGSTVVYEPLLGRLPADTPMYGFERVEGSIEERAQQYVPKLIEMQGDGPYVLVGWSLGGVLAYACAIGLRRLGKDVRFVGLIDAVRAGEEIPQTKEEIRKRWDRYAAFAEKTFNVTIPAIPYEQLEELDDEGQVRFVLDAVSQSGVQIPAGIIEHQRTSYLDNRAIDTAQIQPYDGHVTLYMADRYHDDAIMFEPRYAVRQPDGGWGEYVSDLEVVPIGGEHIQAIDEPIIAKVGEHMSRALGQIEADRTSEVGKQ

Data taken from ChEMBL document CHEMBL3988442, “University of Dundee, Small-Polar-MMV Screening Library” (2021).

A: 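Enzyme assay of tryptophanyl-tRNA synthetase; the read-out is not stated. Target: Tryptophan-tRNA ligase, Mycobacterium tuberculosis (UniProt P9WFT3). Compounds at 10 µM. Direction is not recorded; retested compounds ran higher, which suggests that high means inhibition. Size under these conditions: about 65,000 compounds, about 64 of them at 50% or above in at least one test.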
B: 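Polyketide synthase Pks13, Mycobacterium tuberculosis (UniProt I6X8D2). Enzyme assay of the thioesterase domain of polyketide synthase 13; the read-out is not stated. Concentration: 30 µM. Higher reads as stronger inhibition (inferred from which compounds were picked for retests). Size under these conditions: about 67,000 compounds, about 300 of them at 50% or above in at least one test.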

Results are given as percent effect. How 0% and 100% were set is not recorded. Most values in the screen are low, and negative values occur. Compounds were drawn at random from those tested, without regard to their results. A dash means the value is not listed here; it may have been measured.

| compound | A | B |
|---|---|---|
| `CCc1ccc(O)c(C(=O)N2CCN(CC(=O)N3CCCCC3)CC2)c1` | 3.385 | 12.57 |
| `COc1ccc(NC(=O)CSc2nc(C)cc(C)n2)cn1` | 2.064 | -33.54 |
| `Cc1cc(C)n(CC(=O)N2CCC(NS(=O)(=O)c3ccccc3)CC2)n1` | 2.673 | -13.13 |
| `COc1ccc(C2CCCN2C(=O)NCCn2ccnc2)cc1` (centres undefined) | -1.738 | -32.67 |
| `Cn1cc(CCC(=O)N2C[C@H]3CC[C@@H]2CN(Cc2cccnc2)C3)cn1` | 0.2546 | 11.63 |
| `Fc1ccc(Oc2nccnc2C2CCN(C3CCOCC3)CC2)cc1` | -8.828 | 1.806 |
| `CCc1cc(NCCc2cccnc2)n2nc(C)c(C)c2n1` | -7.584 | -7.062 |
| `Cc1ccccc1CC(C)(C)NC(=O)c1cccc(OCC(N)=O)c1` | 0.2337 | -33.7 |
| `CCn1nc(C)c(CCNC(=O)c2cccc(NCC(=O)O)c2)c1C` | -7.173 | 5.15 |
| `CS(=O)(=O)N1CCC(c2cnc(-c3cn[nH]c3)cn2)CC1` | -7.124 | 39.8 |
| `CN1[C@@H](C(=O)NCC2CC2)C[C@@H]2CN(Cc3ccco3)C[C@@H]21` | 2.824 | -1.042 |
| `CC(C)CN1CCN(Cc2nc3ccccc3[nH]2)[C@H]2CS(=O)(=O)C[C@H]21` | -6.37 | -9.216 |
| `COc1ccc(CCCN2C(=O)O[C@@H]3CN(C4CCOCC4)C[C@@H]32)cc1` | -6.306 | -2.152 |
| `CC(CS(C)(=O)=O)N(C(=O)Nc1cc(F)ccc1Cl)C1CC1` (centres undefined) | 3.008 | -19.76 |
| `CN1CCN(Cc2c(-c3ccco3)[nH]c3ncccc23)CC1` | - | 19.25 |
| `CN(C)CCN1CC(C(=O)N2CCC(c3nccn3C)CC2)CC1=O` (centres undefined) | 1.341 | -27.6 |
| `COCCN1CCN(C(=O)c2ccc(C)cc2OC)[C@H]2CS(=O)(=O)C[C@H]21` | -2.825 | -9.062 |
| `COc1cc(Br)c(CNC(C)c2nnc3n2CCC3)cc1OC` (centres undefined) | 22.27 | 2.08 |
| `CCn1cnnc1CCNS(=O)(=O)N1CCCC1c1ccco1` (centres undefined) | 0.8043 | -1.077 |
| `Cc1cc(CN2CCN(C(=O)NC(C)c3cccnc3)CC2)on1` (centres undefined) | 2.201 | -5.932 |
| `COC(=O)c1ccc(C2SCC(=O)Nc3c2cnn3C2CCCC2)cc1` (centres undefined) | -0.2712 | -25.93 |
| `CCN(CC)C(=O)[C@@H]1C[C@@H](NC(=O)c2cccc(N(C)C)c2)CN1C` | 0.5708 | -12.25 |
| `Cc1noc(C(C)N(C)CC(=O)NCCc2ccc(Cl)cc2)n1` (centres undefined) | -2.496 | -10.78 |
| `Cc1nnc2sc(-c3cc(C(C)C)n[nH]3)nn12` | -2.894 | 0.2988 |
| `CCCN(CCC)C(=O)c1sc(C)nc1C` | -5.982 | -19.67 |
| `Cn1cc(N2CC3(CCN(S(C)(=O)=O)C3)CC2=O)cn1` (centres undefined) | -3.81 | 3.459 |
| `CN(C)S(=O)(=O)N1CC[C@H]2OCC[C@@]2(COc2cccnc2)C1` | -3.427 | - |
| `O=S1(=O)CCN(CCCc2ccc(Cl)cc2)CC1` | -3.86 | -18.57 |
| `COCc1cc(NCC(F)(F)F)n2nccc2n1` | -1.903 | -8.58 |
| `CN(Cc1cnccn1)S(=O)(=O)c1ccc(C(F)(F)F)nc1` | -1.485 | 6.715 |
| `Cc1cc(F)ccc1OC1(C(=O)O)CCN(Cc2cccnc2)CC1` | -5.236 | -17.3 |
| `O=C1CCCN1CCN1CCC(c2ccn[nH]2)CC1` | -3.229 | -8.738 |
| `Cc1noc(C)c1C(=O)N1CCC(Nc2cccnn2)CC1` | -2.496 | -13.32 |
| `NC(=O)Cn1cnc2nc3n(c2c1=O)CCC3` | -1.223 | -20.55 |
| `Cc1noc(NCc2ccc(F)cc2F)n1` | 3.303 | - |
| `CC1c2ncc(Cn3cccn3)n2CCN1Cc1ccc(F)cc1` (centres undefined) | - | -17.81 |
| `CC(C)n1cc(C(=O)NCC(CO)Cc2cccs2)cn1` (centres undefined) | -2.506 | -16.92 |
| `O=C(NCc1cccnc1)[C@@H]1C[C@@H]2CCN(c3ncc(F)cn3)C[C@@H]2O1` | -1.592 | 12.83 |
| `CCn1cnnc1CNC(=O)NC(C)c1ccc(Cl)s1` (centres undefined) | -1.298 | -5.309 |
| `COc1cccc(C(=O)NS(=O)(=O)c2cc(Cl)sc2Cl)c1OC(F)F` | -1.376 | -3.072 |
| `Cn1ccnc1SC1CCc2ccccc2NC1=O` (centres undefined) | 1.763 | -9.591 |
| `CN1CCN([C@@H]2CCN(C3CCOCC3)[C@H]2Cc2cnn(C)c2)CC1` | -3.968 | -15.28 |
| `COc1cccc(C2CCCN2C(=O)NCCCn2cccn2)c1` (centres undefined) | 5.141 | -11.25 |
| `OC(COCc1cccs1)CN1CCC(c2ccn[nH]2)CC1` (centres undefined) | -0.7081 | -17.57 |
| `O=C1N(c2ccc(Cl)cc2)Cc2nc(=O)[nH]n21` | -3.65 | -32.5 |
| `Cc1cnn(C2CCCN(C(=O)CCCn3ccnc3C)C2)c1` (centres undefined) | -1.71 | -7.246 |
| `CC(C)CN1CCC2(CCN(Cc3nccs3)CC2)C1=O` | -1.58 | -25.13 |
| `Cc1ncc(C(=O)NCCNc2ncnc3sccc23)s1` | 2.517 | -11.39 |
| `CN(C)C(Cn1ccnc1-c1ccccc1C(=O)O)c1ccccc1Cl` (centres undefined) | -1.102 | -17.35 |
| `Cc1nc(C(=O)N2CCOCC2)cc(N2CCC(C(N)=O)CC2)n1` | -1.364 | -17.32 |
| `Cc1cc(NC(=O)CNC2CCCN(c3cccnn3)C2)on1` (centres undefined) | 15.57 | -8.137 |
| `CN1CCCN(c2nccc(-c3cc(C(=O)O)ccn3)n2)CC1` | 5.708 | -5.522 |
| `Cc1nc[nH]c1CN1CCC(CNC(=O)c2cccc3cnccc23)C1` (centres undefined) | -4.16 | -25.36 |
| `COc1ccc(CN2Cc3[nH]nc(C(=O)N(C)C)c3C2)cc1` | -9.157 | -14.76 |
| `Cc1noc(C)c1CN1CC2(CCN(C(=O)c3ccoc3C)C2)CC1=O` (centres undefined) | 0.07628 | -20.65 |
| `O=C(CCn1ccc(=O)[nH]c1=O)N1CCC(OCc2cccnc2)CC1` | 0.9226 | -10.87 |
| `COCc1c(Cl)cccc1NC(=O)NCc1cccc(N(C)C)n1` | -4.681 | -2.481 |
| `CS(=O)(=O)N1CC[C@H]2O[C@H](C(=O)NCCc3ccccn3)CC[C@H]21` | -2.441 | -1.76 |
| `CC(C)N1C[C@@H]2CN(C(=O)NCc3ccccc3)CCC[C@]2(C(=O)O)C1` | -1.098 | -27.87 |
| `CC(NCc1cccc(C#N)c1)c1ccccn1` (centres undefined) | -2.961 | - |
| `CN(Cc1cccnc1)[C@@H]1CN(Cc2cnn(C)c2)[C@@H]2CCCO[C@H]12` | -5.231 | -11.53 |

Some entries from above, unchanged:

- CN1CCN(Cc2c(-c3ccco3)[nH]c3ncccc23)CC1 : B: 19.25%
- CC(CS(C)(=O)=O)N(C(=O)Nc1cc(F)ccc1Cl)C1CC1 (centres undefined) : A: 3.008%; B: -19.76%
- COCCN1CCN(C(=O)c2ccc(C)cc2OC)[C@H]2CS(=O)(=O)C[C@H]21 : A: -2.825%; B: -9.062%
- CCN(CC)C(=O)[C@@H]1C[C@@H](NC(=O)c2cccc(N(C)C)c2)CN1C : A: 0.5708%; B: -12.25%
- CC(C)N1C[C@@H]2CN(C(=O)NCc3ccccc3)CCC[C@]2(C(=O)O)C1 : A: -1.098%; B: -27.87%